Experimental findings from article PMC4077825 are described below.

Sequences of proteins named here, by UniProt entry; tags and fusion partners are left off.
UniProt P98177: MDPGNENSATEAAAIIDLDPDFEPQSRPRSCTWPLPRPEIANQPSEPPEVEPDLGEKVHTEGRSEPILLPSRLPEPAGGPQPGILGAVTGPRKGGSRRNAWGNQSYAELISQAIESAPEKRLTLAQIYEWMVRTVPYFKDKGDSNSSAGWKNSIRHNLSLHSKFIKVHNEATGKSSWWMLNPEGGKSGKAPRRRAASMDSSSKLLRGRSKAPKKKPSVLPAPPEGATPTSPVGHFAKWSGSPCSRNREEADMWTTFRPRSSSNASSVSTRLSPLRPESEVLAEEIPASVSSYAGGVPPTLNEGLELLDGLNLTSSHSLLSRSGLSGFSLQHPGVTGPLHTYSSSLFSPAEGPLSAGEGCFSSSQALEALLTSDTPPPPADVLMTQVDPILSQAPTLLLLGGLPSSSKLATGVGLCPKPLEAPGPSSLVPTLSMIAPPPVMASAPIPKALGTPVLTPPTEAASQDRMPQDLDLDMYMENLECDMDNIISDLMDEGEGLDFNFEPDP
UniProt Q13950: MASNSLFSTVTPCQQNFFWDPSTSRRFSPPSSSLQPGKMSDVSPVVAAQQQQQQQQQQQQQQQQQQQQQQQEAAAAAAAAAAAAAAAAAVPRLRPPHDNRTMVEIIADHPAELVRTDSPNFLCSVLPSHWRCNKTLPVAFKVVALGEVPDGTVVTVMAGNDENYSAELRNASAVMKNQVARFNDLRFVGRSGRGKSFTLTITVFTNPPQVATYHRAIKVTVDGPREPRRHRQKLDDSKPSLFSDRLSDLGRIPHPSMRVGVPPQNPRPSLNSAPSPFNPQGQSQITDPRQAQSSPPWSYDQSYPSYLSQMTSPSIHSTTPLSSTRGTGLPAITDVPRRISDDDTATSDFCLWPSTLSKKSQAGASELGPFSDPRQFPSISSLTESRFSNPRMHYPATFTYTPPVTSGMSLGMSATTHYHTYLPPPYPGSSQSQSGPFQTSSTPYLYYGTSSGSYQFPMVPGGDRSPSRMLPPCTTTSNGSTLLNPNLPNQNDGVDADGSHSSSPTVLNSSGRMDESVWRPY

Results are given in words; binding and its absence hold for the method and conditions named. Binding seen in cells or lysates may run through a third protein. Some binding calls cover weakened binding; strength is not graded here.

The target of one assay is Myc-FOXO4 (UniProt P98177). In words: co-IP; HEK293T co-transfected with Myc-FOXO4 plus HA-RUNX2 (HA-RUNX2 alone or empty vector as controls); lysed after 48 h in RIPA buffer; IP with HA Ab then Myc IB, or IP with Myc Ab then HA IB.
The next assay deals with HA-RUNX2 (UniProt Q13950). The description is as above.

As for HA-RUNX2 (from UniProt Q13950 1-521), the binding result in the assay with Myc-FOXO4 is “binds”.
In the case of Myc-FOXO4 (from UniProt P98177 1-505), the binding entry in the assay with HA-RUNX2 is “binds”.
